The results in this text go back to paper doi:10.1101/2023.01.29.526107.

Chains of the proteins cited; added tags and fusions are not shown. Lines headed by an entry give the natural chain unless they say otherwise; changes in a name come on top. Residues count along the entry.
UniProt P08069, 31-1367: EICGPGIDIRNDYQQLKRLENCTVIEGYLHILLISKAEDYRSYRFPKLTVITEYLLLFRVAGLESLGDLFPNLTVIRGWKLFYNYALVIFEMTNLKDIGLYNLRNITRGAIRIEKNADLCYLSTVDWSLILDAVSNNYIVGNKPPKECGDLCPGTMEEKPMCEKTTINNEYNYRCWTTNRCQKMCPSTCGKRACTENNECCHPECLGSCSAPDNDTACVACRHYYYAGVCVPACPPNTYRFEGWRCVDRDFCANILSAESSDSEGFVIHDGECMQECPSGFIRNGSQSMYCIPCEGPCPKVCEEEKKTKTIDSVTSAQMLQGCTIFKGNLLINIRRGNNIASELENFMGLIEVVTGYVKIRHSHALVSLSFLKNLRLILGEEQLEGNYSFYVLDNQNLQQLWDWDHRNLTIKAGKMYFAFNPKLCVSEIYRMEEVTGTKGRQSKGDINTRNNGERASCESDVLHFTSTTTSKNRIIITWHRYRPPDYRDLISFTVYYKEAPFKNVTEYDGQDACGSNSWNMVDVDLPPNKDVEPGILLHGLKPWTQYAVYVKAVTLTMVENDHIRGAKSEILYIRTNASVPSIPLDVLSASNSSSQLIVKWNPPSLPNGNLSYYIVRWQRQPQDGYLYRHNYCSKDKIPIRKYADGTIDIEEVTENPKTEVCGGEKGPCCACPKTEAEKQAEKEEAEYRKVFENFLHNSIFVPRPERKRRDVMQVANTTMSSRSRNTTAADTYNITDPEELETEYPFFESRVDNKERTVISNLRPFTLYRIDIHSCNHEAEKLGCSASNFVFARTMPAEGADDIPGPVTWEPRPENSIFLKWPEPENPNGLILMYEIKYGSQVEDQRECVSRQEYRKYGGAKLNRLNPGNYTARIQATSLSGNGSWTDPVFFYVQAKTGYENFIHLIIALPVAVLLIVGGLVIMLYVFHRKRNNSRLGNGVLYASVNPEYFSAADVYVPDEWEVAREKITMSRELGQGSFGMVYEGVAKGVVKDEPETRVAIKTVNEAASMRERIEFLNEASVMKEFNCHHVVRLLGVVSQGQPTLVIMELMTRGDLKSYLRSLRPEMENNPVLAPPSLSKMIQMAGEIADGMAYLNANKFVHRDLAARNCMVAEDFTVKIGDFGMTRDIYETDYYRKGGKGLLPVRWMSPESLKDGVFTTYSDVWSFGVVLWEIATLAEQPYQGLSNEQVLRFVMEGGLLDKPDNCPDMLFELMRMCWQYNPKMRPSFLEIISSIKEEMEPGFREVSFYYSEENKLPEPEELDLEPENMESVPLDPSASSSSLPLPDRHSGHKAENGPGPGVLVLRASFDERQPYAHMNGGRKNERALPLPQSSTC
UniProt P08069, whole entry, looked up, stated change not applied: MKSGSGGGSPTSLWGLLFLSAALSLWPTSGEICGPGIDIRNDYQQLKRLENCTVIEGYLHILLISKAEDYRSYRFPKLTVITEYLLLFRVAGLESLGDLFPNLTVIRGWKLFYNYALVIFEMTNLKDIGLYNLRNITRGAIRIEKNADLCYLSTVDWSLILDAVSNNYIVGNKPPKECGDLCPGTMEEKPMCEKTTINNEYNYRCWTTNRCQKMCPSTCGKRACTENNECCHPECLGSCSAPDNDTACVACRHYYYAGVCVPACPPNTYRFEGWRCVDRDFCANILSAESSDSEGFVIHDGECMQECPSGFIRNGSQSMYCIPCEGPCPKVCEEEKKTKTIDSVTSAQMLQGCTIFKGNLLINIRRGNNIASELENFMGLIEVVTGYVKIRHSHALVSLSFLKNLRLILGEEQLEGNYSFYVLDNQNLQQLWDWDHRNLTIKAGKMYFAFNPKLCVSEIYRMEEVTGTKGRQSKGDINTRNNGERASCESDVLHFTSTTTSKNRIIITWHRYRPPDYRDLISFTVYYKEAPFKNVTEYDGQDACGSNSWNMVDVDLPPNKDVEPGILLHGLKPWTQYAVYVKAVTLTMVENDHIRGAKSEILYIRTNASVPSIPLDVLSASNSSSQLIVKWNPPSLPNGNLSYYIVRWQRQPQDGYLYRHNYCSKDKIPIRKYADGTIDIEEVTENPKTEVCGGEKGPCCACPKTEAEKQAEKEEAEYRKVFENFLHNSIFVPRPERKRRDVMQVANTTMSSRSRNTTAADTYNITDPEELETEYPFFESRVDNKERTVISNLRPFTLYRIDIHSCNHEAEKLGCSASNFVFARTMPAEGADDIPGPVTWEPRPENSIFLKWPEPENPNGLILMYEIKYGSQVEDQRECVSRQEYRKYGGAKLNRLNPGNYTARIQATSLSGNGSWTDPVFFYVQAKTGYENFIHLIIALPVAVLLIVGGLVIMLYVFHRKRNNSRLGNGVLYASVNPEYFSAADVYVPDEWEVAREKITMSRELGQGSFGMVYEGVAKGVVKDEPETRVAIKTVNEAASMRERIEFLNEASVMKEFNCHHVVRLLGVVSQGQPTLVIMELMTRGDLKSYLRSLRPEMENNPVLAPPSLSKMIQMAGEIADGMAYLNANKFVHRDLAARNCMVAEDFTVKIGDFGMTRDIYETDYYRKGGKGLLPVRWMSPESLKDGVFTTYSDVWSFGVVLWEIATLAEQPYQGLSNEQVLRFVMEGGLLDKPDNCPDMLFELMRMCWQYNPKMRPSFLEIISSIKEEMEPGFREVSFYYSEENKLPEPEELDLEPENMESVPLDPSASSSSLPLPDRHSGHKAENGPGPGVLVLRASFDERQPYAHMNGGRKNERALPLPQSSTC
UniProt P29376, 17-864: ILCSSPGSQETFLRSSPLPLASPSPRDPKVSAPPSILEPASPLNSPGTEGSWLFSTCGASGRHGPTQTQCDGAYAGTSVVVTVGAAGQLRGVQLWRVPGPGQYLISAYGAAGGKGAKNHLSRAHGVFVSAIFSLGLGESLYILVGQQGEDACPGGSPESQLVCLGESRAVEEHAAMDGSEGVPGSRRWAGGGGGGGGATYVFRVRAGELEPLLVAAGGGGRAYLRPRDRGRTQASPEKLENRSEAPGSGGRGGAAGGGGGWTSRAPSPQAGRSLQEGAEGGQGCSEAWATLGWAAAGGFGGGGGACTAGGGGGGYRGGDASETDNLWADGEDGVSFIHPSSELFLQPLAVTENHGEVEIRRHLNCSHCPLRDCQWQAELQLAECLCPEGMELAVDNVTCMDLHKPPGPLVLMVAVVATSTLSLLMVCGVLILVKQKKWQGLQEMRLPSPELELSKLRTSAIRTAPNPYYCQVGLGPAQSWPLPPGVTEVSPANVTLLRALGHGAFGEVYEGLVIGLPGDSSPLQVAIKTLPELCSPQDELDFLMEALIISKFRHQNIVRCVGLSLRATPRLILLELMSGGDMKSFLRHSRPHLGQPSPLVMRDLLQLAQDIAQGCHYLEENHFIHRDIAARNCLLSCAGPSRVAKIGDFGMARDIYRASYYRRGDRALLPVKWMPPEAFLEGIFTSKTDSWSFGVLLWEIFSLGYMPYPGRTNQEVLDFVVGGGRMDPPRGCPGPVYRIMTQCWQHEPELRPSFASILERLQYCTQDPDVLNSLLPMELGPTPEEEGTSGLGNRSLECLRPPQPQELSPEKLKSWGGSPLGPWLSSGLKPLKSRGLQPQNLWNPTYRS

No constants are given. Whether binding was seen depends on the method and setting. In cells and extracts the contact can be indirect. Some entries that bind do so weakly or less than the wild type.

Assay [1] addresses Flag-tagged IGF-1R (insulin-like growth factor 1 receptor), wild type (UniProt P08069). The assay can be described thus: co-IP.
In assay [2] the target is Flag-tagged IGF-1R-K1003R, kinase inactive (KR) variant (UniProt P08069). Kind of assay: co-IP.

In the case of “LTK-GFP (leukocyte tyrosine kinase, GFP-tagged) (from UniProt P29376 17-864) (receptor)”, the binding result in assay [1] was “binds”.
With “LTK-WT-HA (HA-tagged wild-type LTK) (from UniProt P29376 17-864) (receptor)”, the binding entry in assay [2] and in assay [1] was “binds” each time.
